Results deposited as PubChem BioAssay AID1259425 (University of Nebraska Medical Center, 2018)
The deposit covers about 14,000 reagents; shown is a random part of them. The record does not give: the time to read-out.

- Screen: 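Seek colon cancer weak points whose silencing resembles KSR1 loss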 (primary screen)
- Cell system: HCT116 human colon cancer cells
- Reagent: siRNA pool against human genes, 50 nM siRNA
- Read-out: 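After 50 nM siRNA pool, branched-DNA assay measures six marker transcripts per well, minus blank, normalised to the geometric mean of two housekeeping transcripts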
- Reading the numbers: BNIP3L mRNA: higher = more BNIP3L transcript after knockdown; NDRG1 mRNA: higher = more NDRG1 transcript after knockdown; BNIP3 mRNA: higher = more BNIP3 transcript after knockdown; ALDOC mRNA: higher = more ALDOC transcript after knockdown; ACSL5 mRNA: higher = more ACSL5 transcript after knockdown

gene knocked down | BNIP3L mRNA, set 1 | NDRG1 mRNA, set 1 | BNIP3 mRNA, set 1 | ALDOC mRNA, set 1 | ACSL5 mRNA, set 1
ZNF451 | 0.0863 | 0.0739 | 0.419 | 0.0348 | 0.113
EPYC | 0.0453 | 0.291 | 0.261 | 0.0118 | 0.155
GDNF | 0.0863 | 0.173 | 0.307 | 0.0178 | 0.131
KDM5D | 0.0823 | 0.368 | 0.375 | 0.0579 | 0.153
WARS2 | 0.101 | 0.209 | 0.22 | 0.0258 | 0.182
SUV39H1 | 0.0899 | 0.243 | 0.278 | 0.0268 | 0.135
COMMD4 | 0.0927 | 0.309 | 0.232 | 0.0137 | 0.146
GMCL2 | 0.0994 | 0.212 | 0.28 | 0.008 | 0.181
APOBR | 0.147 | 0.415 | 0.277 | 0.0253 | 0.184
UTP14C | 0.096 | 0.219 | 0.363 | 0.0338 | 0.234
GDF3 | 0.114 | 0.15 | 0.302 | 0.0305 | 0.264
KIFAP3 | 0.097 | 0.141 | 0.326 | 0.0142 | 0.144
JUN | 0.114 | 0.0571 | 0.419 | 0.00572 | 0.145
FOXF1 | 0.0761 | 0.296 | 0.116 | 0.0153 | 0.157
COL5A2 | 0.0788 | 0.129 | 0.329 | 0.0277 | 0.241
CDCP1 | 0.068 | 0.345 | 0.337 | 0.0237 | 0.195
CORO1C | 0.0779 | 1.24 | 0.447 | 0.0103 | 0.316
SEPSECS | 0.0865 | 0.196 | 0.312 | 0.0187 | 0.271
EPB41 | 0.133 | 0.104 | 0.231 | 0.0187 | 0.112
PTOV1 | 0.127 | 0.244 | 0.417 | 0.0669 | 0.133
IMPA1 | 0.0818 | 0.186 | 0.239 | 0.0156 | 0.178
NECAB1 | 0.105 | 0.0811 | 0.349 | 0.0161 | 0.174
ASTE1 | 0.1 | 0.201 | 0.336 | 0.0373 | 0.232

Reformatted: results already given
gene knocked down,"BNIP3L mRNA, set 1","NDRG1 mRNA, set 1","BNIP3 mRNA, set 1","ALDOC mRNA, set 1","ACSL5 mRNA, set 1"
UTP14C,0.096,0.219,0.363,0.0338,0.234
GDF3,0.114,0.15,0.302,0.0305,0.264
KIFAP3,0.097,0.141,0.326,0.0142,0.144

More results follow.
gene knocked down | BNIP3L mRNA, set 1 | NDRG1 mRNA, set 1 | BNIP3 mRNA, set 1 | ALDOC mRNA, set 1 | ACSL5 mRNA, set 1
ZFP2 | 0.212 | 0.476 | 0.751 | 0.055 | 0.306
PPM1J | 0.0784 | 0.0579 | 0.226 | 0.0118 | 0.222
IFI27 | 0.122 | 0.0996 | 0.391 | 0.0379 | 0.0993
GPR162 | 0.168 | 0.191 | 0.203 | 0.0362 | 0.178
HSD17B10 | 0.123 | 0.243 | 0.356 | 0.0231 | 0.275
SMAD9 | 0.132 | 0.102 | 0.279 | 0.0294 | 0.22
HECTD3 | 0.316 | 0.589 | 0.493 | 0.116 | 0.22
SMG7 | 0.048 | 0.179 | 0.244 | 0.0326 | 0.224
SHPK | 0.111 | 0.0845 | 0.205 | 0.00365 | 0.116
FGD1 | 0.145 | 0.156 | 0.385 | -0.00196 | 0.288
CLDN11 | 0.0634 | 0.131 | 0.132 | 0.033 | 0.176
TIMM10 | 0.0821 | 0.18 | 0.151 | 0.0168 | 0.269
CHRNE | 0.124 | 0.199 | 0.145 | 0.0623 | 0.235
JARID2 | 0.13 | 0.0369 | 0.332 | 0.0122 | 0.144
MAF1 | 0.263 | 0.18 | 0.316 | 0.0378 | 0.245
RRP7A | 0.0741 | 0.0756 | 0.378 | 0.0351 | 0.0871
RMND1 | 0.0745 | 0.422 | 0.323 | 0.0306 | 0.314
THAP10 | 0.118 | 0.0935 | 0.433 | 0.0485 | 0.297
CASP14 | 0.0778 | 0.272 | 0.403 | 0.0355 | 0.246
TRIB3 | 0.223 | 0.0344 | 0.551 | 0.034 | 0.108
BRME1 | 0.0799 | 0.297 | 0.258 | 0.0288 | 0.218
RALGDS | 0.0878 | 0.262 | 0.244 | 0.0231 | 0.198
FKBPL | 0.155 | 0.374 | 0.297 | 0.0292 | 0.155
PEA15 | 0.0514 | 0.215 | 0.236 | 0.0355 | 0.0851
CPT2 | 0.183 | 0.0934 | 0.36 | -0.0212 | 0.301
OXT | 0.0727 | 0.16 | 0.168 | 0.0112 | 0.0885
MAG | 0.218 | 0.324 | 0.431 | 0.0175 | 0.183
